Reference: PubChem BioAssay AID1347423 (Functional Genomics Laboratory (NCATS/FGL), 2020)
Among all 52,000 sequences or so, about 210 (0.4%) were called active.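 The calls were made as follows: active = gene whose silencing raises cell survival under the drug, median off-target-corrected z-score across its silencing RNAs 2 or more; inactive = the rest.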 The list shows a part of the results.

Experiment: Resistance to Poly (ADP-Ribose) Polymerase inhibitor: Gene Identification via Genome-wide siRNA Screen
Conditions: mouse BRCA2 R2336H ES cells, olaparib, CellTiter-Glo viability; hits give high values
Procedure, shortened: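 Mouse BRCA2 R2336H ES cells were reverse-transfected with siRNA (20 nM final), treated at 48 h with 500 nM olaparib, and read by CellTiter-Glo after 72 h. Scores: MAD-based z per siRNA, median per gene, seed off-target correction.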

Sequence	z-score
CCAUCCUUCCGAAAGACGATT against 9230112J07Rik	inactive: -1.34
GUCCCUCUUUCUAUGGAGGTT against AY026312	inactive: 1.78
GGGUGACAGGGCAUGAGAATT against H2afy2	inactive: 0.15
GGCAGAUGUCUGAUUUGGUTT against Zfp553	inactive: -1.15
GCCUGUUCAUCGGUUUUAUTT against V1rd3	inactive: -0.0378
CCUUUGCCUUCAGUUUUAUTT against MGC91106	inactive: 0.348
AUGCGUUUGUCAUGAAUUUTT against C630023L15Rik	inactive: 0.396
GGUGGUGAGCAUCUACUAUTT against Alox5	inactive: -0.497
CGGGCUGAUUCAACUGGUGTT against Kif1b	inactive: -0.196
GGUAGACUGUGAAAAUGACTT against Ldlr	inactive: 2.65
GGUGAAGUCAUCACUAUUGTT against Trpm2	inactive: -0.636
GCCAAUGGACCACAAACUGTT against Lass6	inactive: -0.377
CGCUGGACUGGAAUACUCATT against Zfp1	inactive: -1.25
GGACAGAUGGAAUAGUGAATT against Klra10	inactive: -0.373
CCAAGAUCCCGUUAAACAATT against Defb3	inactive: 1.34
GCACUUGAAUCGAUUGAAUTT against AW011752	inactive: 0.225
CCAAGAUGGGUUCAUCUCUTT against Cabp5	inactive: -0.294
GGAGCCAGUCCAAAUUGCATT against Il13ra1	inactive: 0.0419
GGGUUCAGACAUGUUGUUATT against Ang1	inactive: 0.589
GAGCUGGCAAUCUUUCUCUTT against Olfr1156	inactive: 0.649
CGGAUUUCAUGGCUCAAGATT against A930009M04Rik	inactive: 0.503
GGACAAGUGAUCUCCAUGGTT against D730040F13Rik	inactive: -1.24
GCAGUGGUUUGAUCUAUUUTT against Cul5	inactive: -1.36
GCCUGGUUAAGGCAUGAUATT against 4930549O06	inactive: 0.725
GCGACAAAUCGCGCUAUGATT against Grm3	inactive: -1.9
GCCAUAGGCUCAUCUUUACTT against Ankib1	inactive: 0.12
CGCAGACAGAGACAACCUGTT against Casp6	inactive: 0.0732
GCUGAAUGGUCUUGUUACATT against BC043301	inactive: -0.0975
GCUCCGAAUUUUGCUGAUCTT against Galc	inactive: 0.556

Reformatted: results already given.
Sequence | z-score
CGCAGACAGAGACAACCUGTT against Casp6 | inactive: 0.0732
GCUGAAUGGUCUUGUUACATT against BC043301 | inactive: -0.0975
